According to PMC3407492:
These are yes or no findings as the source states them, for the method shown. Binding seen in cells or lysates may run through a third protein. Some entries that bind do so weakly or less than the wild type. For some of these results: Sequences can lack the tags named with a protein.

The chains behind the UniProt entries cited, without tags or fusion partners.
UniProt Q13547: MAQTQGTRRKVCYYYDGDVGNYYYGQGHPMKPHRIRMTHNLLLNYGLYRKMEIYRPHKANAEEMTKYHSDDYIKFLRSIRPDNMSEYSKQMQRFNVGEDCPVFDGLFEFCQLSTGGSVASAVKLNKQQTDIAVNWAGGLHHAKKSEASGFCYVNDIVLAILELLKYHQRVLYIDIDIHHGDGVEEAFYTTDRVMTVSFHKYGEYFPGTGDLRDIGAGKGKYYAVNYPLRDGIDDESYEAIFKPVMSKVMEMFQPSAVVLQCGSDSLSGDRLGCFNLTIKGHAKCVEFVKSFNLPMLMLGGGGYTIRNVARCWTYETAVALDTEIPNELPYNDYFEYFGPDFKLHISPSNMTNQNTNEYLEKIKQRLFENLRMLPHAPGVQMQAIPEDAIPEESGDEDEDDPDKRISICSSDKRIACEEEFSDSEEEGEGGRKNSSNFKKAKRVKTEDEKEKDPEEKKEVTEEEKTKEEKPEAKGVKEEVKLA
UniProt Q92769: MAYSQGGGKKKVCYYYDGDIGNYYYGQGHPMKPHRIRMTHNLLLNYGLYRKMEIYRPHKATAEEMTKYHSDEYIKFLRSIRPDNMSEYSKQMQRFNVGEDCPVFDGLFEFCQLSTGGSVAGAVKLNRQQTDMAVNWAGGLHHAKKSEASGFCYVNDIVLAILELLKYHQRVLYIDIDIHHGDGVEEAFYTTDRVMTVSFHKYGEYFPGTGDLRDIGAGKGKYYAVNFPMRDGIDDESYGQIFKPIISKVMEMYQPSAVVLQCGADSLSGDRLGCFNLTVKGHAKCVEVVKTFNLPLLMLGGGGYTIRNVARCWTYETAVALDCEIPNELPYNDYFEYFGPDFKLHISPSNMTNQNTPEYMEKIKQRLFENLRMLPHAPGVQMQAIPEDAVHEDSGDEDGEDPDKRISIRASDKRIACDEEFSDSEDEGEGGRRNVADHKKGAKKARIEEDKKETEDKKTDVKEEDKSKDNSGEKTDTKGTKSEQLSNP

How the values were obtained:
[1] = molecular target: T1, Myb-binding protein 1a (Mybbp1a), endogenous (human (endogenous in HeLa)) (UniProt Q9BQG0); experiment: co-IP; IP of endogenous Mybbp1a with anti-Mybbp1a antibody (control IgG beside it) from 1 mg cell extract, 2.5 ug antibody, 4 °C overnight, protein G-sepharose, six washes with WCE buffer; blots probed for HDAC1 and HDAC2
T1 sequence: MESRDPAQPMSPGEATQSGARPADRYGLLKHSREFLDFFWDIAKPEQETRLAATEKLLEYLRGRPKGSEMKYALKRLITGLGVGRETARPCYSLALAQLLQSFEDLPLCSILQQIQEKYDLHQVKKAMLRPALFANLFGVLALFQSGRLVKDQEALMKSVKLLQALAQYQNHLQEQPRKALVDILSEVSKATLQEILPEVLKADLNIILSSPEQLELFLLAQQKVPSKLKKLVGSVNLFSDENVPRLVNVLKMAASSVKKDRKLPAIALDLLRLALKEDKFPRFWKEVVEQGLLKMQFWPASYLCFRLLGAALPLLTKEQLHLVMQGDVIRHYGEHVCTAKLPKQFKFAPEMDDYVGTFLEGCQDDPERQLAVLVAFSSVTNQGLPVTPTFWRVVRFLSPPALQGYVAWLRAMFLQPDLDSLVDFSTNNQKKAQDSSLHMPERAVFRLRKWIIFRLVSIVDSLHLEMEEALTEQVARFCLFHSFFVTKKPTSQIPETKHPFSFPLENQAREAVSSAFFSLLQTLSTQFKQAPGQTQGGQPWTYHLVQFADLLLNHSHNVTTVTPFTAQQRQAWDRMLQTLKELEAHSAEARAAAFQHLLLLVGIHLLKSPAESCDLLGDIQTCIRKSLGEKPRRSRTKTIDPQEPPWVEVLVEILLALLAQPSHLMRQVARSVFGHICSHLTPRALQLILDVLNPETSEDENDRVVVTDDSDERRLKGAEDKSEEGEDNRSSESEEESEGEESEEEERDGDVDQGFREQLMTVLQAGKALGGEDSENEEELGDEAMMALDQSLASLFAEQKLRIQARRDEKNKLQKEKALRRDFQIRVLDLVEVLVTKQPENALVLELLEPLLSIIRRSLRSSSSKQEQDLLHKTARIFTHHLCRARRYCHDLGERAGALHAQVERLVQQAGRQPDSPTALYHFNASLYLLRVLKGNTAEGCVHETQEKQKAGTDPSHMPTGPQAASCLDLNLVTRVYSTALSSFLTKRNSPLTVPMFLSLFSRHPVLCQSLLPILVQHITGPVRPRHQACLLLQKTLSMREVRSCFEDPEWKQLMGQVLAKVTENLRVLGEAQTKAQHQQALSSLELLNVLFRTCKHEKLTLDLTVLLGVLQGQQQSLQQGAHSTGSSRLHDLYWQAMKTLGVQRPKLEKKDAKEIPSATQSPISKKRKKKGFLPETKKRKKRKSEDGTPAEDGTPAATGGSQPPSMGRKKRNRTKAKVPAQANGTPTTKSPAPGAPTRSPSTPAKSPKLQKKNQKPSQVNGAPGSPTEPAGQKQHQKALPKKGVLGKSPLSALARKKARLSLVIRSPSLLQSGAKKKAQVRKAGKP

Myc-Mybbp1a (exogenous) = molecular target: T2, Myc-Mybbp1a (exogenous) (UniProt Q7TPV4); experiment: co-IP; co-immunoprecipitation with exogenous Myc-Mybbp1a; data not shown, which antibody precipitated is not told
T2 sequence: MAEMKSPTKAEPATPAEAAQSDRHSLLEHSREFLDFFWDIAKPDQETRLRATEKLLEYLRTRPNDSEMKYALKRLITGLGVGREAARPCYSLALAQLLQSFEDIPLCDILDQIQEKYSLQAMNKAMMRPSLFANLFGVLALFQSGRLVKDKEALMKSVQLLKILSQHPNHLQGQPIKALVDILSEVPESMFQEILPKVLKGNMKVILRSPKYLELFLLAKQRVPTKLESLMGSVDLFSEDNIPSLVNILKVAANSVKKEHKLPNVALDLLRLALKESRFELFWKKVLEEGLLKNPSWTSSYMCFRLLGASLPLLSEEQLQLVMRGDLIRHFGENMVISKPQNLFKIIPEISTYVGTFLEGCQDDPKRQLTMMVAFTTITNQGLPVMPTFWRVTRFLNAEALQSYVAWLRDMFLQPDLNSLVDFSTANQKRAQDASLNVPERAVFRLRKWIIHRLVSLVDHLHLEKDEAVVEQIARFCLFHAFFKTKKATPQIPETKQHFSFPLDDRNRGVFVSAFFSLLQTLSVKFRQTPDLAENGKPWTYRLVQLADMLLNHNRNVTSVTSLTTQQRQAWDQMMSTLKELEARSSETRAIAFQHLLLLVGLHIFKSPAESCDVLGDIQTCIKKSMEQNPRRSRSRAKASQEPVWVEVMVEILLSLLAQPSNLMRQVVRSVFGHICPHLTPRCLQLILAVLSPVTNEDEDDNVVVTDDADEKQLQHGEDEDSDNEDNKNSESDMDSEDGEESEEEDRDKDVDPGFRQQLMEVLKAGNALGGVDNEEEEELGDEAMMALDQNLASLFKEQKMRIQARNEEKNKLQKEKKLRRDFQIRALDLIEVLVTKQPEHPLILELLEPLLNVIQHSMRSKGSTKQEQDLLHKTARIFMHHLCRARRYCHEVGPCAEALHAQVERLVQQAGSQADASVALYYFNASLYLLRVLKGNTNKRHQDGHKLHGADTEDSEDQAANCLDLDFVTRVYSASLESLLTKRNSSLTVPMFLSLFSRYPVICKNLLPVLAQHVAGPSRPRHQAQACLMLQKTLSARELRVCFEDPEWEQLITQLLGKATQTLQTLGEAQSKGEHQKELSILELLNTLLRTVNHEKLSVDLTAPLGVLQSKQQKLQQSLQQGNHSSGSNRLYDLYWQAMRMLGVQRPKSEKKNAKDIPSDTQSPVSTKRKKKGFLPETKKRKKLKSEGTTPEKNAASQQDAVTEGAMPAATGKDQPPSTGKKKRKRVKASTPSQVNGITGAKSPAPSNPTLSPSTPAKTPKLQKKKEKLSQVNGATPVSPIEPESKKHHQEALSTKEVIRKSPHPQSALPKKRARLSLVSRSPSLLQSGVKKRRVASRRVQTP

binding [1] | binding (Myc-Mybbp1a (exogenous)) | Substance
binds | binds | Histone deacetylase 1 (HDAC1), endogenous (from UniProt Q13547 1-482) (enzyme)
binds | binds | Histone deacetylase 2 (HDAC2), endogenous (from UniProt Q92769 1-488) (enzyme)
